Values quoted from earlier work, collected in patent US20200261418A1, “HDAC INHIBITOR IN COMBINATION WITH IMMUNE CHECKPOINT MODULATOR FOR CANCER THERAPY” (4SC AG, priority 2017, published 2020).
At least one compound was matched to its structure with a doubt left.

Test system: advanced melanoma
Conditions: systemic therapy of advanced melanoma; cited from earlier work

Structure (SMILES): CN(C)/N=N/c1[nH]cnc1C(N)=O [Dacarbazine]
- objective response rate (ORR): 13%
